This is one part of the list.
target: T1, OsSMF1 (Oryza sativa, UniProt Q6ZLB0 1-436); experiment: protein-binding microarray (RPBM); PBS, 2% BSA, 51.3 ng/ul salmon testes DNA, 50 uM zinc acetate, 200 nM TF, 25 C, 1 h; high values mean tight binding; conditions: protein: recombinant; tags: N-terminal polyhistidine and DsRed monomer fusion (pET32a); chain copies: 2; label: CyDye5-dUTP incorporated in the synthesized complementary strand; 3' TTTTT single-stranded linker to array surface; dsDNA, one strand shown
T1 sequence: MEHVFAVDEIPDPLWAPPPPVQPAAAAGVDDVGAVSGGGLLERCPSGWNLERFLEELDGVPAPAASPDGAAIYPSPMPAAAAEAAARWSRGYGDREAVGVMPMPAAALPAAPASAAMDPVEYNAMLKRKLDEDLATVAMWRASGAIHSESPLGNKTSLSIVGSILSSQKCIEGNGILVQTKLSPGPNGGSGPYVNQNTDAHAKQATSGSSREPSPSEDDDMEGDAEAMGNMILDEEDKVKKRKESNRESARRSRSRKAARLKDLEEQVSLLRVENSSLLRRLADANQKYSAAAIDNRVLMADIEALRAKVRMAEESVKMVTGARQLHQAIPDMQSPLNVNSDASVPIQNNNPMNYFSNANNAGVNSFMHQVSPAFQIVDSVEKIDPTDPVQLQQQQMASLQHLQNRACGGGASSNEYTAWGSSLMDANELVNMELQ
How it was run: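 In PBS with 2% BSA, salmon testes DNA and 50 µM zinc acetate, 200 nM protein was incubated on a custom Agilent array at 25 °C for 1 h and then washed off. The array had been made double-stranded by primer extension with Cy5-dUTP and blocked with 2% BSA. The proteins were transcription factors fused N-terminally to polyhistidine and DsRed, expressed in E. coli BL21-CodonPlus and purified on Ni–NTA. The binding signal is per-feature fluorescence intensity (arbitrary units) from an Axon 4000B scanner.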

Sequence	binding signal
CTCCTCCCCTTTCACGCCGCCGCTCCGCCCCGCCACCCTCCGGAGTCACCTAGTGCAG	3710 fluorescence intensity (a.u.)
GCGGCTTGCGTAAGCCCGTATAAGTTCACGGGTTACACTGCGGAGTCACCTAGTGCAG	7160 fluorescence intensity (a.u.)
GACGAGTACTATAATATCTGACACACTCATACCCCAGTGTCGGAGTCACCTAGTGCAG	4420 fluorescence intensity (a.u.)
CGCGCCGCCTCTCCTTGTTGTCTCGTCGCGCGCCGGCGCCCGGAGTCACCTAGTGCAG	4820 fluorescence intensity (a.u.)
TTTGCATTAAATATGACAGCAATATATCTATCTCATCCAACGGAGTCACCTAGTGCAG	23200 fluorescence intensity (a.u.)
TCCAACCTAAGCTACCCAACACACCTGACGACTTGCTATACGGAGTCACCTAGTGCAG	3350 fluorescence intensity (a.u.)
AAGATTTCCAGTCATCAGTCTGAGCGAGCTGTGCTTGTTGCGGAGTCACCTAGTGCAG	4690 fluorescence intensity (a.u.)
ATTGAACATCTGTGTGACACGTGCCTTAGCACAAATCGTACGGAGTCACCTAGTGCAG	5600 fluorescence intensity (a.u.)
TTCAACAGGCCTGACTCAACAAATTTGTGAAATTATTATGCGGAGTCACCTAGTGCAG	4140 fluorescence intensity (a.u.)
CTTCCTCGTCGATGGGTATCTCGTGTATGATGTCCTCCTCCGGAGTCACCTAGTGCAG	3410 fluorescence intensity (a.u.)
TTCAATTACACAGGTCAATTCGGTTTTCTTAGTGACCAACCGGAGTCACCTAGTGCAG	26100 fluorescence intensity (a.u.)
ATTCCATATGTACAGATTGCACGTTGTCTAAAGTATGACACGGAGTCACCTAGTGCAG	4070 fluorescence intensity (a.u.)
TAGTCATAAGTGCTATAGTAACCCACGTATGCTAATGACGCGGAGTCACCTAGTGCAG	7340 fluorescence intensity (a.u.)
TAGTTTTCCTGGTTAGAGGACATCGGAGTAGCGCCGATGGCGGAGTCACCTAGTGCAG	3470 fluorescence intensity (a.u.)
CCGTCCCCGCCGCGCTGACGTACTACTGGAGGATGTCCATCGGAGTCACCTAGTGCAG	4220 fluorescence intensity (a.u.)
ATCCACCGTCGTGTCGCCCACTGTCCAACTGCCAGTCAGCCGGAGTCACCTAGTGCAG	3480 fluorescence intensity (a.u.)
ATTACATGTTCCCCACCAGTGACAACACACTGATCAGACCCGGAGTCACCTAGTGCAG	4300 fluorescence intensity (a.u.)
TCGCTACAAGATCTGAGTCAACGTGTCACGCGCTGCGCCTCGGAGTCACCTAGTGCAG	12400 fluorescence intensity (a.u.)
TGCGTACAAAGGTTTGATATGGGGAGTGGGTATCAAACGACGGAGTCACCTAGTGCAG	3690 fluorescence intensity (a.u.)
CACTTCCATCCTTTCTTGTACAGTTGTACTGTTGTTACCTCGGAGTCACCTAGTGCAG	3740 fluorescence intensity (a.u.)
CGATCATATAGGGACGCCACGTCAATAAGAAACTATACCCCGGAGTCACCTAGTGCAG	12000 fluorescence intensity (a.u.)

Sequence	binding signal
CCATCTGTATCCACGTCCGCATCACTCTCATCCCTACCGTCGGAGTCACCTAGTGCAG	17800 fluorescence intensity (a.u.)
CCTCCTCCGCCCAGTGACATGCCACCCGCCGCCGCCGCCGCGGAGTCACCTAGTGCAG	3980 fluorescence intensity (a.u.)
ATTTGGCTAACAATTTTATCCACCGATCCACTCGTGCCACCGGAGTCACCTAGTGCAG	35500 fluorescence intensity (a.u.)
GCCACGCCCAACCCGTGTCACTGTCACGTGGGCCCCACCCCGGAGTCACCTAGTGCAG	7720 fluorescence intensity (a.u.)
GCCCATCGCCTCCTCCTCGAGCCACCGCGCTGCCGTGTGCCGGAGTCACCTAGTGCAG	3150 fluorescence intensity (a.u.)
CTCGATCACACACGGTGTCACAGTCACAGGTGCATTGACGCGGAGTCACCTAGTGCAG	7140 fluorescence intensity (a.u.)
TATGCATGCATGTACGGTGCTGTACAGGTATGTGTGATCGCGGAGTCACCTAGTGCAG	4780 fluorescence intensity (a.u.)
AGCGGGAGAAACGGTCTCCGTGACTCACTGACAAGGTGGGCGGAGTCACCTAGTGCAG	13300 fluorescence intensity (a.u.)
CAGCACAAGTGTCGTCGTCTCTCCGTTTCTTGTGCAGTTTCGGAGTCACCTAGTGCAG	3360 fluorescence intensity (a.u.)
TGGAGAGAGGGATTTCATCATCAGGAAGGTCCACAGATCTCGGAGTCACCTAGTGCAG	35100 fluorescence intensity (a.u.)
TGCCTCTCACGTACTGACACTGTTGCGCACACGCACGCACCGGAGTCACCTAGTGCAG	3180 fluorescence intensity (a.u.)
TTATATGCCTCAAGTGACTAGGATAGCATCCTCGCTAATACGGAGTCACCTAGTGCAG	3720 fluorescence intensity (a.u.)
TTTTAACAGTGCCTGCAACATGTTGGGTGTCTCAGAACATCGGAGTCACCTAGTGCAG	10600 fluorescence intensity (a.u.)
GTCTTCCGCGGCGGCGGCGGGGAAGCGGGCGCGGGCGGGGCGGAGTCACCTAGTGCAG	4180 fluorescence intensity (a.u.)
ATCAGAAACTTCCCTTAGATTGAAGAGTCAAACCTCATTCCGGAGTCACCTAGTGCAG	3470 fluorescence intensity (a.u.)
AGAAACAACCACTTTTCTTAGATGTTCCATGATAAAAGGCCGGAGTCACCTAGTGCAG	5840 fluorescence intensity (a.u.)
CACCACCTGAGTCACTGACACGTGGGCCCCATCGCTCTCCCGGAGTCACCTAGTGCAG	15400 fluorescence intensity (a.u.)
GAGGCCCTGGTTTAGCGTCACGCGCCCGCCACACTGTCCTCGGAGTCACCTAGTGCAG	5920 fluorescence intensity (a.u.)
CGGTGCCGCGTCGACGCCGCCTCCGCCGACGCCATCCTCTCGGAGTCACCTAGTGCAG	5610 fluorescence intensity (a.u.)
GACTGGAGCGCCACGCATTCTCCCTCCATGGATCCTCCTGCGGAGTCACCTAGTGCAG	4740 fluorescence intensity (a.u.)
CGACTCGACTTGAATGCTCGTAGAGCACGCAACCACACTGCGGAGTCACCTAGTGCAG	3230 fluorescence intensity (a.u.)

Looked up above.
binding signal with CAGCACAAGTGTCGTCGTCTCTCCGTTTCTTGTGCAGTTTCGGAGTCACCTAGTGCAG reads 3360 fluorescence intensity (a.u.)
binding signal with TATGCATGCATGTACGGTGCTGTACAGGTATGTGTGATCGCGGAGTCACCTAGTGCAG reads 4780 fluorescence intensity (a.u.)

Reference: PMC7819943, “Rice protein-binding microarrays: a tool to detect cis-acting elements near promoter regions in rice”
